# Test results published in PubChem BioAssay AID2685 (National Center for Advancing Translational Sciences (NCATS), 2010).
# Screen size: about 320,000 compounds; about 2,100 (0.66%) were called active. This list was built around the results that the source calls inconclusive (neither active nor inactive); the mix of calls is not that of the screen. The call rests on the fitted dose curve; in most records, active means well fitted inhibition curve with a large enough effect in the signal ratio, with a control signal flat (not every such curve was filed as active); inconclusive means small, poorly fitted or top-dose-only effect, or effect the other way, or a change in a side signal; inactive means flat fitted curve, though single readings scatter; the % refers to the signal ratio. Potencies beside an inconclusive call are fits to weak or partial responses and may not hold up.
# Experiment: qHTS Assay for Lipid Storage Modulators in Drosophila S3 Cells
# Conditions: BODIPY lipid droplet fluorescence, 18-24 h, cells fed with added oleic acid; lipid storage change, negative = inhibition: at 46.1 µM (top of the series) unless noted
# How it was run: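 Laser-scanning cytometry quantifies lipid droplet accumulation (500–530 nm total intensity; droplet/cell object ratio) in oleic acid-fed (400 uM added) Drosophila S3 cells treated with a concentration series. 20 uM Triacsin C defined 100% inhibition.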
# On the % scale 0 is the no-effect control and ±100 the full control effect; potency means the concentration at half of the fitted maximal effect.
SMILES,"lipid storage change, negative = inhibition",Potency
Cc1cccn2c(=O)c3cc(C(=O)NCc4ccco4)c(=N)n(C4CCCCC4)c3nc12,inconclusive: -104%,–
Cc1ccc(CC(=O)NC2CCN(Cc3ccccc3)CC2)cc1,–,"inconclusive: 29.1 µM [activator, single point]"
COc1ccccc1NC(=O)CCc1nc2ccccc2s1,–,"inconclusive: 6.51 µM [falling, single point]"
COc1ccc(S(=O)(=O)N2CCC(C(=O)NCC3CCCO3)CC2)cc1OC (stereo not given),inconclusive: 0.442%,–
Cc1ccc(S(=O)(=O)N2C(=O)CCC2C(=O)O/N=C(\N)c2ccccc2)cc1 (stereo not given),–,"inconclusive: 6.51 µM [activator, single point]"
Cc1ccc(NC(=O)c2c([N+](=O)[O-])cnn2C)cc1C,inconclusive: 25.2%,–
Cc1ccc2nc(C)c(C)nc2c1N,–,"inconclusive: 6.51 µM [rising, single point]"
O=C(CN(Cc1ccc(F)cc1)C(=O)CNS(=O)(=O)c1ccc(Cl)cc1)NCC1CCCO1 (stereo not given),inconclusive: 2.81%,–
COc1ccc(-n2nc(C(=O)NCc3ccco3)c3c4ccccc4n(C)c3c2=O)cc1Cl,–,"inconclusive: 2.06 µM [rising, partial curve]"
Cc1c(CN2CCCCC2)c(O)n(CCO)c(=O)c1C#N,inconclusive: -7.43%,–
Cc1c(C(=O)NCC2CCCO2)cccc1[N+](=O)[O-] (stereo not given),inconclusive: 5.68%,–
CSc1nc2ccccc2n1CC(=O)Nc1c(C)n(C)n(-c2ccccc2)c1=O,inconclusive: 23.6%,–
COc1ccc(CSc2nc3ccccc3c(=O)[nH]2)cc1F,inconclusive: -16.7%,–
CCOc1ccc(C(=O)SC2=NCCS2)cc1,–,"inconclusive: 29.1 µM [falling, single point]"
O=C(CNC(=O)c1cccs1)N=Nc1c(O)[nH]c2ccc([N+](=O)[O-])cc12,–,"inconclusive: 13 µM [falling, partial curve, poor fit]"
CC(C)SCC(=O)Nc1ncc2c(n1)-c1ccccc1CC2,inconclusive: 21.3%,–
N#Cc1nc(-c2ccco2)oc1N1CCCC1,inconclusive: -16.1%,–
COc1cccc(NC(=O)COC(=O)C2C3CC4OC(=O)C2C4C3)c1 (stereo not given),inconclusive: -12.9%,–
O=C(CNC(=O)c1cccc(F)c1)OCc1cc(=O)n2cc(Br)ccc2n1,inconclusive: -10.3%,–
COc1ccc(CCNC(=O)CN2C(=O)c3ccccc3S2(=O)=O)cc1,inactive: 0.948%,–
Cc1ccccc1N(C(=O)CCCC(=O)Nc1ccccn1)C(C(=O)NC1CCCC1)c1ccc(O)cc1 (stereo not given),–,"inconclusive: 0.259 µM [activator, full curve, poor fit]"
O=C(NC1CCOCC1)C1CCC(=O)N(Cc2cccc(C(F)(F)F)c2)C1 (stereo not given),–,"inconclusive: 5.17 µM [falling, single point]"
CSc1ccc(/C=N/NC(=O)CNc2ccc3ccccc3c2)cc1,inconclusive: -27.9%,–
COC(=O)c1ccc(NC(=O)CCN2CCOCC2)cc1,–,"inconclusive: 6.51 µM [activator, single point]"
Clc1ccc2[nH]c3c(N4CCC5(CC4)OCCO5)ncnc3c2c1,–,"inconclusive: 9.2 µM [falling, partial curve]"

SMILES,"lipid storage change, negative = inhibition",Potency
CC(C)CN(C(=O)CCC(=O)OC(C)C(=O)Nc1cccc(C#N)c1)c1c(N)n(CC(C)C)c(=O)[nH]c1=O (stereo not given),inconclusive,–
CC12CCC(=O)N1C(C(=O)Nc1nc3ccccc3s1)CS2 (stereo not given),–,"inconclusive: 6.51 µM [falling, partial curve, poor fit]"
C=CCNC(=O)CC(=O)N/N=C/c1cccs1,inconclusive: -14.4%,–
CCc1cc(=O)oc2cc(C)cc(OCC(=O)NCCc3c[nH]c4ccccc34)c12,–,"inconclusive: 16.4 µM [falling, single point]"
CNc1snc(C)c1C(=O)OCC(=O)N(C)c1ccccc1,inconclusive: -7.36%,–
CC(=O)NCCc1nc2ccccc2n1Cc1ccc(C)cc1,inconclusive: -14.7%,–
COc1cccc(NC(=O)CSc2ccc3nnc(-c4cccnc4)n3n2)c1,inconclusive: -24.7%,–
COc1ccc(N2CCN(C(=O)CSc3ccccc3N)CC2)cc1,inconclusive: 22%,–
O=C(O)c1nccnc1C(=O)N1CCN(c2ccccc2)CC1,inconclusive: 11.2%,–
Cc1ccc(C)c(NS(=O)(=O)c2ccc(OCC(=O)NCC3CCCO3)cc2)c1 (stereo not given),–,"inconclusive: 0.103 µM [activator, full curve, poor fit]"
CCN(C(=O)CSc1ncnc2c1cnn2-c1ccccc1)C1CCS(=O)(=O)C1 (stereo not given),inconclusive: -9.95%,–
CC(=O)Nc1ccc(OCC(=O)NCc2ccc3c(c2)OCO3)cc1,inconclusive: 22.1%,–
CCC1(C)Cc2ccccc2C(=O)N1 (stereo not given),inconclusive: 18.9%,–
O=C(O)Cc1ccc(-c2ccccc2-c2ccccc2)cc1,inconclusive: 5.74%,–
CC(C)(C)C(O)CN1CCCC1 (stereo not given),inconclusive: 4.22%,–
Cc1cccc(C)c1OCC(=O)Nc1ccc2c(c1)OCCO2,inconclusive: -15.9%,–
CCC/C(C)=N/NC(=O)c1ccccc1O,inactive: -0.436%,–
COc1ccc(Cl)cc1C(=O)OCC(=O)N(CC(C)C)c1c(N)n(Cc2ccccc2)c(=O)[nH]c1=O,inconclusive: 24.8%,–
Cc1oc2ncnc(N)c2c1C,inconclusive: 2.68%,–
N#CC(C(=O)NCc1ccco1)c1nc2ccccc2nc1N1CCOCC1 (stereo not given),–,"inconclusive: 2.91 µM [activator, partial curve]"
Cc1cc(C(=O)Nc2sc(C)c(-c3ccc(F)cc3)c2C(N)=O)no1,inconclusive: 4.64%,–
CCC(CO)Nc1ncnc2c1cnn2-c1ccc(OC)cc1 (stereo not given),–,"inconclusive: 29.1 µM [falling, single point]"
Cc1ccc2c(c1)[C@H]1[C@H](CO2)[C@H](c2ccccc2)[C@]2(C)C(=O)NCC(=O)N12,–,"inconclusive: 0.731 µM [activator, partial curve]"
Cc1ccc(NC(=O)CN2CCCCCC2)cc1Br,inconclusive: 53.6%,–
Cc1cc(C)n(Cc2ccc(C(=O)NCc3ccco3)o2)n1,–,"inconclusive: 3.26 µM [rising, partial curve]"

# Retrieved one by one from the entries so far, two records:
SMILES,"lipid storage change, negative = inhibition",Potency
C=CCNC(=O)CC(=O)N/N=C/c1cccs1,inconclusive: -14.4%,–
CNc1snc(C)c1C(=O)OCC(=O)N(C)c1ccccc1,inconclusive: -7.36%,–

# Ordered by heavy-atom count (high to low): three of the compounds above.
SMILES,"lipid storage change, negative = inhibition",Potency
Clc1ccc2[nH]c3c(N4CCC5(CC4)OCCO5)ncnc3c2c1,–,"inconclusive: 9.2 µM [falling, partial curve]"
O=C(O)c1nccnc1C(=O)N1CCN(c2ccccc2)CC1,inconclusive: 11.2%,–
O=C(O)Cc1ccc(-c2ccccc2-c2ccccc2)cc1,inconclusive: 5.74%,–
